Reference: US12582132B2, “Germination/sprouting and fruit ripening regulators” (The United States of America, as represented by the …, priority 2021, dated 2026)

Test system: Strawberry fruit (Fragaria x ananassa CV. Albion)
Test: Treatment of strawberry fruit by dipping: fruit ripening
Assay type: in vivo
Details: CAD-treated, ABA-treated or mock-treated
Description: Strawberry plants (Fragaria x ananassa CV. Albion) were grown in a greenhouse at 28° C. and 14-hour light/10-hour dark conditions. […] Fruits were allowed to continue growing on the plants. FIG. 1 depicts images of strawberry fruit development under standard conditions.
FIG. 2A to FIG. 2F depict images of strawberries treated with either 10 μM CAD in 0.1% TRITON X-100 surfactant; 1 mM ABA in 0.1% TRITON X-100 surfactant; or buffer (0.1% TRITON X-100 surfactant) without chemical (mock-treated). […] The CAD dosage was lower than that of ABA (10 μM vs. 1 mM), and CAD stimulated fruit ripening faster than did ABA. […] In contrast, ABA-treated fruit started to turn red 9 DAT, and reached full red 11 DAT.

`CCc1cc(Br)ccc1NC(=O)c1ccn(CC)n1` [CAD, N-(4-bromo-2-ethylphenyl)-1-ethyl-1H-pyrazole-3-carboxamide] was tested, and the “difference in fresh weight of strawberry fruit” value was “no difference” and the “difference in sugar content of strawberry fruit” value was “no difference”.

`CC1=CC(=O)CC(C)(C)[C@@]1(O)/C=C/C(C)=C\C(=O)O` [ABA, abscisic acid, reference compound] was tested, and the “difference in fresh weight of strawberry fruit” value was “no difference” and the “difference in sugar content of strawberry fruit” value was “no difference”.
